Measured data: PubChem BioAssay AID720505 (Drosophila RNAi Screening Center, 2013)
The deposit covers about 20,000 reagents; below is a random part of those that have a named target and a result. In the full data, about 2,100 (10%) are marked active. 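Raw plate signals without normalisation; calls rest on control-based scores that were not deposited; replicate 2 separates called from uncalled poorly.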 A number with no mark means an inactive call. Names joined by + are all predicted targets of the reagent. The record does not give: the amount of reagent, the time to read-out.

Purpose: 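Knock-downs that reduce calcium influx once internal stores are emptied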 (primary screen)
Cell system: Drosophila S2R+ cells
Reagent: long dsRNA against Drosophila genes
Challenge: thapsigargin (2 µM) in calcium-free buffer to empty internal stores, then 2 mM calcium added back
Read-out: 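Fluo-4 signal in 384-well plates read on a FLIPR after thapsigargin (2 µM, calcium-free) store depletion and 2 mM calcium add-back; unnormalised mean endpoint per well; screen run twice, selected wells retested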
Direction: calcium signal and retest calcium signal: higher = more calcium entry after store depletion
Call rule: 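About 1500 genes called as lowering calcium entry, by varying amounts, judged against per-plate control wells with STIM1 as positive and Rho1 as negative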
Meaning of the calls: active = called as lowering calcium entry; inactive = not called

target | PubChem SID | calcium signal, replicate 1 | calcium signal, replicate 2 | retest calcium signal, replicate 1 | retest calcium signal, replicate 2
CG2070 | SID104186606 | 137 | 185 | – | –
CG4318 | SID104199679 | 122 | 93 | – | –
BNIP3 | SID104191553 | 114 | 167 | – | –
mbt | SID104200140 | 116 | 129 | – | –
mbt | SID104202377 | 118 | 156 | – | –
CG10175 | SID104193992 | 219 | 125 | – | –
CG10175 | SID104201586 | 80 | 119 | – | –
GatC + PolG2 | SID104183104 | 72.5 | 103 | – | –
Ccp84Ae | SID104192382 | 77.5 (active) | 185 | 7083 | 120
Ir7f | SID104197804 | 149 | 79.7 | – | –
Nlp | SID104196551 | 103 | 149 | – | –
CG17140 + CG17139 | SID104182377 | 126 | 166 | – | –
CG17140 + CG17139 | SID104182378 | 135 | 163 | – | –
Nap1 | SID104184418 | 102 | 98.6 | – | –
Asap | SID104186285 | 131 | 119 | – | –
Asap | SID104186622 | 216 | 161 | – | –
CG14443 | SID104197728 | 156 | 124 | – | –
Rph | SID104197582 | 126 | 103 | – | –
janA | SID104196764 | 85.1 (active) | 202 | – | –
CG8750 | SID104190829 | 133 | 109 | – | –
CG32448 | SID104202057 | 58.8 (active) | 94.3 | – | –
CG14689 | SID104194704 | 121 | 101 | – | –
CG42337 | SID104191478 | 116 | 130 | – | –
CG42337 | SID104191479 | 81.5 | 86.4 | – | –
CG42337 | SID104202456 | 99.5 | 122 | – | –
jbug | SID104183744 | 119 | 7224 | – | –
jbug | SID104183906 | 141 | 80.2 | – | –
jbug | SID104183959 | 99.2 | 175 | – | –
jbug | SID104184180 | 174 | 208 | – | –
CG43691 | SID104186442 | 146 | 203 | – | –
CG43691 | SID104186443 | 112 | 121 | – | –
CG4558 | SID104198161 | 149 | 103 | – | –
CG9106 | SID104199946 | 92.5 | 102 | – | –
CG15073 | SID104186298 | 195 | 131 | – | –
CG7115 | SID104181792 | 96.4 | 111 | – | –
AP-2sigma | SID104195749 | 65.2 (active) | 86.9 | – | –
RpS30 | SID104194911 | 97.8 (active) | 163 | – | –
CG7179 | SID104182812 | 70.8 (active) | 90 | – | –
CG31693 | SID104183466 | 105 | 6467 | – | –
CG12684 | SID104197667 | 218 | 119 | – | –
Ogg1 | SID104197530 | 158 | 96.7 | – | –
TSG101 | SID104190890 | 101 | 158 | – | –
Mvk + CG33672 + spt4 | SID104185148 | 78.7 | 110 | – | –
Mvk + CG33672 + spt4 | SID104186420 | 175 | 158 | – | –
msk | SID104191132 | 114 | 97.1 | – | –
CG2017 | SID104192085 | 120 | 92 | – | –
tgo | SID104196869 | 124 | 137 | – | –
CG14440 | SID104197725 | 188 | 128 | – | –
CG14440 | SID104202365 | 181 | 170 | – | –
CG14440 | SID104202366 | 88.8 | 156 | – | –
COX6CL | SID104180687 | 83.7 | 113 | – | –
Gs1l | SID104180546 | 109 | 115 | – | –
RpL27 | SID104195430 | 79.1 (active) | 115 | – | –
lncRNA:CR32160 | SID104202263 | 151 | 197 | – | –
CG17650 | SID104180302 | 187 | 132 | – | –
Saf6 | SID104180425 | 110 | 217 | – | –

An excerpt from the list above:
target | PubChem SID | calcium signal, replicate 1 | calcium signal, replicate 2 | retest calcium signal, replicate 1 | retest calcium signal, replicate 2
RpS30 | SID104194911 | 97.8 (active) | 163 | – | –
CG7179 | SID104182812 | 70.8 (active) | 90 | – | –
CG31693 | SID104183466 | 105 | 6467 | – | –
CG12684 | SID104197667 | 218 | 119 | – | –
Ogg1 | SID104197530 | 158 | 96.7 | – | –
TSG101 | SID104190890 | 101 | 158 | – | –
Mvk + CG33672 + spt4 | SID104185148 | 78.7 | 110 | – | –
